Assay results from PubChem BioAssay AID445 (National Center for Advancing Translational Sciences (NCATS), 2006).
The list shows a part of the results. Further columns of the screen follow, without active or inactive calls. Most of these compounds were active or inconclusive in the main read-out, so they are no random draw. Words in brackets tell the shape of the fitted curve; partial curves, single points and poor fits give uncertain potencies.

Experiment: IkB Signaling
Details: ABC-DLBCL IkBa-CBG/CBR dual luciferase ratio (green luciferase fused to IkBa over red control in OCI-Ly3 lymphoma cells), 4 h
Method in brief: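 In this assay, an IκBα–CBG68 fusion accumulates when IKK-driven degradation is blocked; native CBR normalizes for cell number. OCI-Ly3 cells were treated 4 h with compound and doxycycline, then green and red light read after Chroma-Glo addition.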

[1] = measured here: control luc red channel unless noted

COc1ccc2c(c1)-c1nc(NC(=O)c3cccc(Br)c3)sc1CC2
AC50 [1]: 0.794 µM [falling, partial curve]

Cc1ccc(NC(=O)CN2C(=O)c3cccnc3Sc3ccccc32)c(Br)c1
AC50 [1]: 31.6 µM [falling, single point]

Cc1ccc(NC(=O)Cn2nnc(-c3ccccc3)n2)c(C)c1
AC50 [1]: 7.94 µM [rising, partial curve]

O=C(C1COc2ccccc2O1)N(Cc1cccnc1)c1nc2c(F)cccc2s1 (stereo not given)
AC50 [1]: 31.6 µM [falling, single point]

CC1CCN(S(=O)(=O)c2cc(C(=O)N3CCN(c4cccc(Cl)c4)CC3)n(C)c2)CC1
AC50 [1]: 15.8 µM [falling, single point]

COc1ccc(N(CC(=O)N2CCc3ccccc3C2)S(=O)(=O)c2ccccc2)cc1
AC50 [1]: 39.8 µM [falling, single point]

COc1ccccc1C1C(C(=O)N2CCCCC2)=C(C)Nc2nc3ccccc3n21 (stereo not given)
AC50 [1]: 39.8 µM [falling, single point]

CCOC(=O)c1nnn(C(CC)C(=O)Nc2ccc(F)cc2)c1C(=O)OCC (stereo not given)
AC50 [1]: 0.01 µM [falling, full curve, poor fit]

Cc1cccc(-c2noc(-c3ccccc3OCC(=O)Nc3ccccc3[N+](=O)[O-])n2)c1
AC50 [1]: 15.8 µM [falling, single point]

CCOC(=O)c1ccc(NC(=O)C(C)Sc2nc(=O)cc(N)n2CCc2ccccc2)cc1 (stereo not given)
AC50 [1]: 15.8 µM [falling, partial curve]

O=C(Nc1scc(-c2cccs2)c1C(=O)O)c1cccs1
AC50 [1]: 2.51 µM [falling, full curve]

CCn1c(=O)c(C(=O)Nc2ccccc2S(N)(=O)=O)c(O)c2ccccc21
AC50 [1]: 0.1 µM [falling, full curve]

CSc1nc(N2CCN(CCO)CC2)c2sc3nc(-c4ccco4)c4c(c3c2n1)CCC4
AC50 [1]: 3.16 µM [falling, full curve, poor fit]

COc1cc(C(=O)N2CCN(c3cc(Cl)ccc3Cl)CC2)cc(OC)c1OC
AC50 (measured here: IkB-luc green channel): 2.51 µM [rising, full curve] | AC50 (measured here: control luc red channel): 2 µM [rising, full curve]

O=C(NCc1ccccc1Cl)c1c2c(nc3ccccc13)C(=O)N(C1CCCCC1)C2
AC50 [1]: 25.1 µM [falling, single point]

CCN(CC)c1ccc(C2C(C(=O)Nc3ccccc3C)=C(C)Nc3ncnn32)cc1 (stereo not given)
AC50 [1]: 0.631 µM [falling, full curve]

O=c1[nH]c2ccc(S(=O)(=O)N3CCN(c4ccccc4F)CC3)cc2s1
AC50 [1]: 12.6 µM [falling, partial curve]

COC(=O)CCCCCn1c(-c2ccccc2)cn2c3c(=O)n(C)c(=O)n(C)c3nc12
AC50 [1]: 39.8 µM [falling, single point]

CCN(CC)S(=O)(=O)c1ccc2oc(C(=O)N3CCCCCC3)c(C)c2c1
AC50 [1]: 10 µM [falling, partial curve]

Cc1ccc(C)c(N2CCN(CCCNC(=O)c3cnn(-c4ccccc4)c3C3CCN(C(=O)OC(C)(C)C)CC3)CC2)c1
AC50 [1]: 10 µM [falling, partial curve]

Cn1c(SCC(=O)Nc2sc3c(c2C#N)CCC3)nnc1C1COc2ccccc2O1 (stereo not given)
AC50 [1]: 39.8 µM [falling, single point]

CCn1c(CSc2nc3ccccc3s2)nc2ccccc21
AC50 [1]: 10 µM [falling, partial curve]

CC(C)n1c(SCC(N)=O)nc2c1c(=O)[nH]c(=O)n2C
AC50 [1]: 20 µM [rising, partial curve]

O=C1CS(=O)(=O)C2(C(=O)N(Cc3ccccc3)c3ccccc32)N1c1ccc(F)c(Cl)c1 (stereo not given)
AC50 [1]: 31.6 µM [falling, partial curve]

COc1ccc(S(=O)(=O)N(CC(=O)Nc2ccccc2Cl)Cc2ccccc2)cc1
AC50 [1]: 0.251 µM [falling, full curve, poor fit]

Cc1ccc(CCNC(=O)CN2C(=O)COc3ccc(S(=O)(=O)N4CCCCCC4)cc32)cc1
AC50 [1]: 39.8 µM [falling, single point]

O=C(Nc1cccc(Cl)c1)c1cc(-c2ccc3c(c2)OCO3)on1
AC50 [1]: 0.0631 µM [falling, full curve]

COc1cccc(-c2nnn(CCC(=O)O)n2)c1
AC50 [1]: 2.51 µM [falling, full curve] [measured here: IkB-luc green channel]

COc1cc(OC)cc(C(=O)Nc2ccc3nc4n(c(=O)c3c2)CCCCC4)c1
AC50 [1]: 15.8 µM [falling, partial curve]

COc1ccccc1C(=O)Oc1c(Sc2ccccc2)c(C)nn1-c1ccccc1
AC50 [1]: 3.16 µM [falling, full curve]

O=C(Nc1ccc(F)cc1F)c1cc(S(=O)(=O)N2CCCCC2)c[nH]1
AC50 [1]: 15.8 µM [falling, partial curve]

Cc1ccc(C)c(N2C(=O)N(Cc3cccc(C(F)(F)F)c3)c3ccccc3S2(=O)=O)c1
AC50 [1]: 10 µM [falling, partial curve]

CCn1c2c(c(=O)n3ncc(C(=O)N4CCN(c5ccc(C(C)=O)cc5)CC4)c13)CN(Cc1ccc(OC)cc1)CC2
AC50 [1]: 15.8 µM [falling, partial curve]

COc1ccc(F)cc1S(=O)(=O)Nc1ccc2c(c1)CCCN2C(=O)c1cccs1
AC50 [1]: 39.8 µM [falling, single point]

COC(=O)c1sccc1S(=O)(=O)N(CC(=O)NCc1ccc(C)cc1)c1ccc(C)c(C)c1
AC50 [1]: 3.98 µM [falling, partial curve]

Cc1cc(NC(=O)c2cc(Cl)ccc2Cl)ccc1-c1cc2ccccc2oc1=O
AC50 [1]: 3.16 µM [falling, single point]

CC(=O)c1c(C)oc2c1cc(NS(=O)(=O)c1c(C)cc(C)cc1C)c1ccccc12
AC50 [1]: 12.6 µM [falling, partial curve]

Cc1ccc(C)c(N2CCN(C(=O)CCCCn3c(=O)[nH]c4ccccc4c3=O)CC2)c1
AC50 [1]: 12.6 µM [falling, partial curve]

CCCNC(=O)Cn1c(=O)c2cccn2c2cccnc21
AC50 [1]: 0.0398 µM [rising, full curve, poor fit]
